Consider one molecule from PMC6581720 (Frontiers in Microbiology, 2019).

Experiment [1] addresses SpoIVB^S378A (inactive sporulation factor IV B protease, truncated Thr75-Ser426, fused to 6xHis and mMBP tags) (B. subtilis (strain 168)) (UniProt P17896). The experiment can be described thus: SAXS; 1, 2.5 and 5 mg/ml, 283 K, beamline BL19U2; molecular weight from SAXSMoW; both purified.
Experiment [2] shares this target. Nature of the experiment: dynamic light scattering; 0.1, 0.25 and 0.5 mg/ml in 20 mM Tris-HCl, 150 mM NaCl, 5% glycerol pH 8.0, 25°C; both purified.
The target is the same in experiment [3]. The experiment can be described thus: SEC; Superdex 200 Increase 10/300 GL, 20 mM Tris-HCl, 500 mM NaCl, 5% glycerol pH 8.0; retention volume 13.54 ml against standards of 158 kDa and 44 kDa; both purified.

Results are given in words; binding and its absence hold for the method and conditions named. Sequences can lack the tags named with a protein.

B1: SpoIVB^S378A (inactive sporulation factor IV B protease, truncated Thr75-Ser426, fused to 6xHis and mMBP tags) (enzyme, UniProt P17896 75-426)
chain: TGKKSGESELVYDLAGFPIKKTKVHVLPDLKVIPGGQSIGVKLHSVGVLVVGFHQINTSEGKKSPGETAGIEAGDIIIEMNGQKIEKMNDVAPFIQKAGKTGESLDLLIKRDKQKIKTKLIPEKDEGEGKYRIGLYIRDSAAGIGTMTFYEPKTKKYGALGHVISDMDTKKPIVVENGEIVKSTVTSIEKGTGGNPGEKLARFSSERKTIGDINRNSPFGIFGTLHQPIQNNISDQALPVAFSTEVKKGPAEILTVIDDDKVEKFDIEIVSTTPQKFPATKGMVLKITDPRLLKETGGIVQGMAGSPIIQNGKVIGAVTHVFVNDPTSGYGVHIEWMLSEAGIDIYGKEKAS
Consider B1, for which the results for the binding result in experiment [1], in experiment [2] and in experiment [3] were “no binding (tested: 5 mg/ml)”, “no binding (tested: 0.5 mg/ml)” and “no binding”, respectively.
